Measurements reported in article PMC10202292, “The exquisite specificity of human protein arginine methyltransferase 7 (PRMT7) toward Arg-X-Arg sites” (PLOS ONE, 2023).
The structures given here were assigned with low confidence; some may be wrong.

The chains behind the UniProt entries cited, without tags or fusion partners.
UniProt Q9NVM4, whole entry: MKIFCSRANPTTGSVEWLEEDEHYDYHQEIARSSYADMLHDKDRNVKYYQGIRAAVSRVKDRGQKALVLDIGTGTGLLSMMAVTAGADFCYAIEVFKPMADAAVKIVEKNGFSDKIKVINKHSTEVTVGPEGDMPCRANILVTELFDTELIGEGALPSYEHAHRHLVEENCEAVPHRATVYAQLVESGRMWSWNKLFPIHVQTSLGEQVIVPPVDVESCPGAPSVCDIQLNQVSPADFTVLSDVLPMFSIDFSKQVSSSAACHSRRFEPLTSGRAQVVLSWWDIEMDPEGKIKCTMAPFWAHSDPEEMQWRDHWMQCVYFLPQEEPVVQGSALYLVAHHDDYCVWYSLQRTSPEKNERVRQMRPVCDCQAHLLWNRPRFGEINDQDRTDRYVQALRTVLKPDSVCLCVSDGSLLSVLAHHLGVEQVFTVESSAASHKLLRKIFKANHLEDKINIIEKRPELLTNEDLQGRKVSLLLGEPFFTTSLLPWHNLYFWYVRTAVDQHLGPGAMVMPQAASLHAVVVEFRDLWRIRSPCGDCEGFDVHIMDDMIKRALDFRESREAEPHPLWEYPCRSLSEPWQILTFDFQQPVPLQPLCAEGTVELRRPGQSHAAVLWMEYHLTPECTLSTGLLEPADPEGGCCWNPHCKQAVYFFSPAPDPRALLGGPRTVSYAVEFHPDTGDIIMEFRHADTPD

Molecular target: GST-HsPRMT7 (Homo sapiens, UniProt Q9NVM4)
Assay: Michaelis-Menten kinetics of peptide substrate methylation (P81 phosphocellulose paper assay)
Parameters: key: Vmax expressed as cpm (averages of cycles 2–4)
Details: + 130 mM KCl; 5 μg GST-HsPRMT7, 0.14 μM [3H]-AdoMet, 60 min, 25°C; GraphPad Prism fit
Description: In vitro methylation assays were performed with GST-HsPRMT7, the indicated substrate protein or peptide, and 1.4 μM S-adenosyl-L-[methyl-^3H]methionine ([^3H]-AdoMet; PerkinElmer cat no. NET155V), prepared from diluting a stock of 7.0 μM [^3H]-AdoMet (81.9 Ci/mmol, 1 mCi/mL in 9:1 10 mM H2SO4:EtOH, v/v) in 10 mM HCl. All reactions were performed using distilled water buffered with 50 mM potassium HEPES, pH 9.5 and 1 mM DTT, reaching a final reaction volume of 30 μL. The reactions were initiated by adding [^3H]-AdoMet to a final concentration of 0.14 μM. Control reactions (enzyme-only, substrate-only) contained distilled water instead of substrate or GST-HsPRMT7, respectively. After initiation with [^3H]-AdoMet, all reactions analyzed via P81 phosphocellulose filter paper assay were incubated in a water bath at 25°C unless otherwise indicated for the specified time periods and were terminated with 0.5 μL 100% (w/v) trifluoroacetic acid (TFA). P81 assays performed at t = 0 were individually terminated immediately following initiation. Samples analyzed via SDS-PAGE were incubated at 4°C for 24 hours and were quenched by adding 5x SDS sample loading buffer (250 mM Tris-HCl, pH 6.8; 10% SDS, 30% glycerol, 10% β-mercaptoethanol, 0.2% bromophenol blue), followed by heating at 97°C for 3 min.
In vitro methylation assays with GST-HsPRMT7, selected methyl-accepting substrates, and [^3H]-AdoMet were set up as described previously and performed in triplicate. Following incubation at 25°C unless otherwise indicated for the time periods specified, all samples were quenched with 0.5 μL 100% TFA and centrifuged at 9,300 g for 10 seconds in an Eppendorf centrifuge (Model 5417C). 1 cm^2 pieces of P81 phosphocellulose filter paper (LabAlley catalog no. 05-717-2A) were spotted with 25 μL from each reaction mixture and set to dry overnight. The following day, all filter paper pieces were washed three times with 50 mM sodium bicarbonate solution, pH 9.0, and dried again in liquid scintillation vials. After 5 mL of Safety Solve fluor (RPI industries) was added to each vial, [^3H] radioactivity in each sample was quantified via liquid scintillation counter (Beckman LS6500) for four total cycles at 5 minutes per sample. All data presented are expressed as averages of the cpm from cycles 2–4.
Statistical analyses were performed using the “Analyze Data” function on GraphPad Prism v.8.0.1. To determine statistical significance, unpaired homoscedastic two-tailed Student’s t tests were performed with significance level α = 0.05 with the relevant data. To obtain apparent km and Vmax values, kinetic data were analyzed by non-linear regression using the Michaelis-Menten equation.

| Substance | Vmax, Michaelis-Menten best-fit value, Fig8 |
| --- | --- |
| Ac-KKGKRGRGGKKY-NH2 | 554.1 |
| Ac-KKGGRKRGGKKY-NH2 | 875.5 |
| Ac-KKGGRGRGGKKY-NH2 | 821.7 |
| Ac-KKDGKKRKRSRKESY-NH2 | 15717 |
| Ac-KKGGRGRKGKKY-NH2 | 403.6 |
| Ac-KKGGRERGGKKY-NH2 | 99.03 |
| Ac-KKGGRGGGGKKY-NH2 | 165.4 |
